No constants are given. Whether binding was seen depends on the method and setting. Binding seen in cells or lysates may run through a third protein. Some results given as binding are weak or reduced against the parent protein; the word gives no strength. Tags and fused reporters may be left off the sequences shown.

The chains behind the UniProt entries cited, without tags or fusion partners. Residues count along the entry.
UniProt Q9QUK6, residues 26-835: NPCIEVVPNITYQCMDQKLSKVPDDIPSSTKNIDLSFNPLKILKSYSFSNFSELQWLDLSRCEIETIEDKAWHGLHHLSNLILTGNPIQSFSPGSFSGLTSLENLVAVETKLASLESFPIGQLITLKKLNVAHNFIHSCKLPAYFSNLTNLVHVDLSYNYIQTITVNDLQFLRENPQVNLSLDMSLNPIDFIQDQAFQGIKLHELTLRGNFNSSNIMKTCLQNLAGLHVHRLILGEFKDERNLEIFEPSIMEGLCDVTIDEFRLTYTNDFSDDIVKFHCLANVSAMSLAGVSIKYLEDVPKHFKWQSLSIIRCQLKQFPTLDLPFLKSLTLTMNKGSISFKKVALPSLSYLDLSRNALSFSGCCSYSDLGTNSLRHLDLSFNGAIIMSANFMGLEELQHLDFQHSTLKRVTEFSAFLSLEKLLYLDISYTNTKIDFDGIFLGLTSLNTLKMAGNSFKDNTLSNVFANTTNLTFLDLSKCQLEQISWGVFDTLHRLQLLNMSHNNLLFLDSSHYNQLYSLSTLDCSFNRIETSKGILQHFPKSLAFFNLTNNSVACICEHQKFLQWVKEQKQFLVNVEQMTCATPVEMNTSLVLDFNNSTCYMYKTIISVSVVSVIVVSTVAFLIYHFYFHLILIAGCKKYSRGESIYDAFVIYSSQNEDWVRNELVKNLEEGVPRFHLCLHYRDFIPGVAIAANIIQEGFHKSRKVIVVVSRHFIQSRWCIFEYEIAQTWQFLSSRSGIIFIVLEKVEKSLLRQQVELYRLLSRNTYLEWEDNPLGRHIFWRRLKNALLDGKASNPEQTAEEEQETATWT

This assay deals with HA-TLR4 (UniProt Q9QUK6). Description: co-IP; bone marrow-derived macrophages cotransfected with psicoR-HA-TLR4 and psicoRFlag-CTRP1 or psicoRFlag-Adipo R1; lysates pre-treated with Protein G Plus/Protein A agarose, incubated with antibodies against HA or Flag, precipitated with Protein G Plus/Protein A agarose, SDS-PAGE; for Adipo R1 with TLR4 also with CTRP1 (interaction enhanced).

B1: Flag-CTRP1 (protein, UniProt Q9QXP7 26-281)
chain: LVPRVQEEQQEWEETEELPSPLDPVTRPEETREKYSPRQGEDLPTSRCYRCCDPSTPVYQTIPPPQINITILKGEKGDRGDRGLQGKYGKIGSTGPRGHVGPKGQKGSIGAPGNHCKSQYAAFSVGRKKALHSNDYFQPVVFDTEFVNLYKHFNMFTGKFYCYVPGIYFFSLNVHTWNQKETYLHIMKNEEEVVILYAQVSDRSIMQSQSLMMELREEDEVWVRLFKGERENAIFSDEFDTYITFSGYLVKPASEP
On to B1, for which the binding result is recorded as “no binding”.

B2: Flag-Adipo R1 (receptor, UniProt Q91VH1 1-375)
chain: MSSHKGSAGAQGNGAPSGNREADTVELAELGPLLEEKGKRAASSPAKAEEDQACPVPQEEEEEVRVLTLPLQAHHAMEKMEEFVYKVWEGRWRVIPYDVLPDWLKDNDYLLHGHRPPMPSFRACFKSIFRIHTETGNIWTHLLGFVLFLFLGILTMLRPNMYFMAPLQEKVVFGMFFLGAVLCLSFSWLFHTVYCHSEKVSRTFSKLDYSGIALLIMGSFVPWLYYSFYCSPQPRLIYLSIVCVLGISAIIVAQWDRFATPKHRQTRAGVFLGLGLSGVVPTMHFTIAEGFVKATTVGQMGWFFLMAVMYITGAGLYAARIPERFFPGKFDIWFQSHQIFHVLVVAAAFVHFYGVSNLQEFRYGLEGGCTDDSLL
Consider B2, for which the binding result is recorded as “binds”.

These data come from PMC8137831.
